Literature values as cited in patent US20040265381A1, “Anti-asthmatic drug (asmakure) from indigenous herbs to cure the disease asthma” (priority 2001, published 2004).

Conditions: following oral administration

SMILES: CCN(CC)CC#CCOC(=O)C(O)(c1ccccc1)C1CCCCC1.Cl (stereo not drawn) [Oxybutynin, α-cyclohexyl-α-hydroxybenzeneacetic acid 4-(diethylamino)-2-butynyl ester hydrochloride]
- duration of action: three to six hours
